Results reported in the supplement of paper PMC10849652.
This is one part of the list.

The chains behind the UniProt entries cited, without tags or fusion partners. Where a name states a change or a piece, a line headed by the entry shows the natural chain unless it says otherwise.
UniProt Q6P1X6: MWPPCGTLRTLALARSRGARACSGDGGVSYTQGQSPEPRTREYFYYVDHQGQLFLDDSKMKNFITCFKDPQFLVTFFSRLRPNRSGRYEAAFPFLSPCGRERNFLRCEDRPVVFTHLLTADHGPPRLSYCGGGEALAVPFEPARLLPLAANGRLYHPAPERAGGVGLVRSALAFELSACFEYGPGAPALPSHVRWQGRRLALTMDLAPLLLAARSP
UniProt Q9H7E9: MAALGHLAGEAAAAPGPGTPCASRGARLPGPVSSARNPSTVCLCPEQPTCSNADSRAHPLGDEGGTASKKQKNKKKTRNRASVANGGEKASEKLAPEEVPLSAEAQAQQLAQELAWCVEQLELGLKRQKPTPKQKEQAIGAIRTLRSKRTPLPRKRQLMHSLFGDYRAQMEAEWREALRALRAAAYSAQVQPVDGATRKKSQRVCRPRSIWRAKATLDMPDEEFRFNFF
UniProt Q13137: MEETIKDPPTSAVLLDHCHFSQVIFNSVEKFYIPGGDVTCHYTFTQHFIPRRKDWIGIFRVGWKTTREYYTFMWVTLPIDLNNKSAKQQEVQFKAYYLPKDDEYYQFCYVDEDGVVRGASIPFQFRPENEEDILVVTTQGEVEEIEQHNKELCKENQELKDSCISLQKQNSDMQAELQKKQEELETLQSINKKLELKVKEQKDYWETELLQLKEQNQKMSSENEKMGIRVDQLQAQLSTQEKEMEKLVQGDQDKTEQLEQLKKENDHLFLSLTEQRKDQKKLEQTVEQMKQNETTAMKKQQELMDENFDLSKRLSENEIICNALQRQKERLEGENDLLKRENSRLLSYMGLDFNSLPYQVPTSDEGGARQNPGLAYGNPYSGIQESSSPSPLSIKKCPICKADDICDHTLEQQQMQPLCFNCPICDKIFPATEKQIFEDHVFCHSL
UniProt Q9H0W9: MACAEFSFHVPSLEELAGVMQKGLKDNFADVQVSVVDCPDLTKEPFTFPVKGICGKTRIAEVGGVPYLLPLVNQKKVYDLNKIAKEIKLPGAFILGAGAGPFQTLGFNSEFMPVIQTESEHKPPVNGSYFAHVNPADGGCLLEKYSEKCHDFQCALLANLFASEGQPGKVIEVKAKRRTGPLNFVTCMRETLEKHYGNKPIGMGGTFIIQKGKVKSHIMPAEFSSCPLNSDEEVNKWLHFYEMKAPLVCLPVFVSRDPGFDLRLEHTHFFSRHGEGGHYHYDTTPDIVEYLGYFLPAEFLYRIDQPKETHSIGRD
UniProt Q8NDD1: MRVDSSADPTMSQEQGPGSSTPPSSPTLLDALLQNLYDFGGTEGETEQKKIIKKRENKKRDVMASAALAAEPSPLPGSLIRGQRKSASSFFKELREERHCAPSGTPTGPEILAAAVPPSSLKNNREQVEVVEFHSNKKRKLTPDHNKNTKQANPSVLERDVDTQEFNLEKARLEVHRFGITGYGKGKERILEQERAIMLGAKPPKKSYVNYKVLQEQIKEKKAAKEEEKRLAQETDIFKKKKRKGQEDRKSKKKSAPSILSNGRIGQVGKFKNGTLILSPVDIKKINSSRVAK
UniProt Q96RR4, whole entry, looked up: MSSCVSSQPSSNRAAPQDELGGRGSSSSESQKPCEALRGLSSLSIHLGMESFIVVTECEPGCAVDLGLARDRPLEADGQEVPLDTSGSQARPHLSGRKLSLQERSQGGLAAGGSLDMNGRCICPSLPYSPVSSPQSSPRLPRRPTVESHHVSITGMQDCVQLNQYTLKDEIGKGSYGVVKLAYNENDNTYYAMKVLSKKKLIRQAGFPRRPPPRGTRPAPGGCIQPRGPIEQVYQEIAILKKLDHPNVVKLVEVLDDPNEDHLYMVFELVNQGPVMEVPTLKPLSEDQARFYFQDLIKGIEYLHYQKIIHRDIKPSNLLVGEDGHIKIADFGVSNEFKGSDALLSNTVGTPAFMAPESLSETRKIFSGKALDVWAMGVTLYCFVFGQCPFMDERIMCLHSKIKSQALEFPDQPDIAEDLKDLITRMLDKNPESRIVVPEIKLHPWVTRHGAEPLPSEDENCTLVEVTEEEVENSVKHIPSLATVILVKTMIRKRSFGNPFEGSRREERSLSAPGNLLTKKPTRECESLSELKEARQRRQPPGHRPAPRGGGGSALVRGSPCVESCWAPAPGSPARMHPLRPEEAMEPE
UniProt P35613: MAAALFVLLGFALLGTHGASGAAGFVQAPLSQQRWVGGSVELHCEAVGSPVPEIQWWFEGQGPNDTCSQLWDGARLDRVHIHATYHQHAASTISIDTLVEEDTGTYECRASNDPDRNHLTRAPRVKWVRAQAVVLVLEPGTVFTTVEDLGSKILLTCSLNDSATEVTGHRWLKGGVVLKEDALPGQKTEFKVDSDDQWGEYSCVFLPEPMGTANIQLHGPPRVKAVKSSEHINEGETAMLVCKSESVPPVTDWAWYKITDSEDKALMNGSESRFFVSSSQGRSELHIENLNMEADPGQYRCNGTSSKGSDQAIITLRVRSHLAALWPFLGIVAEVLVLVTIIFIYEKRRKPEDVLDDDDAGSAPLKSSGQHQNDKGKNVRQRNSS
UniProt O43709: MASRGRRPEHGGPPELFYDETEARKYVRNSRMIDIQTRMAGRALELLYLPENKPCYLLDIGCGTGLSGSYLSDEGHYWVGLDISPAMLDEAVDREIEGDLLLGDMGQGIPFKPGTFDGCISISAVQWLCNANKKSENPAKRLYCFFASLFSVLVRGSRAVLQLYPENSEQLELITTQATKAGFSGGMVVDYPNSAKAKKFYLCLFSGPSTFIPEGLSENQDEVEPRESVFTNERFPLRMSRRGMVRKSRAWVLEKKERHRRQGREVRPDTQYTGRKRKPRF
UniProt Q9BV19: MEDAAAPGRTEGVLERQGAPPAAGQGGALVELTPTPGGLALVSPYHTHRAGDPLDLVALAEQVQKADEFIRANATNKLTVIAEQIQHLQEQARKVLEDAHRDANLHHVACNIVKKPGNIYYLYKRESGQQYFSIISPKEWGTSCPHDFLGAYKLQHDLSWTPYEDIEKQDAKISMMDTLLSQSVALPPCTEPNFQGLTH
UniProt O95873: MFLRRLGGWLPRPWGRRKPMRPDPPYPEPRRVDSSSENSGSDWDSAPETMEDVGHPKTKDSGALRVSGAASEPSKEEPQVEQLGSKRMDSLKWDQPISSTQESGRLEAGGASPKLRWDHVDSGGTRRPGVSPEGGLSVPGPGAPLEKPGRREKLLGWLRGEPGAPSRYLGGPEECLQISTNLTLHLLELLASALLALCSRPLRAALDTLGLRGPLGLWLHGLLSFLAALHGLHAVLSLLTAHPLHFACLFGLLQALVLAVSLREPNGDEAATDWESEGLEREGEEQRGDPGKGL
UniProt P07384: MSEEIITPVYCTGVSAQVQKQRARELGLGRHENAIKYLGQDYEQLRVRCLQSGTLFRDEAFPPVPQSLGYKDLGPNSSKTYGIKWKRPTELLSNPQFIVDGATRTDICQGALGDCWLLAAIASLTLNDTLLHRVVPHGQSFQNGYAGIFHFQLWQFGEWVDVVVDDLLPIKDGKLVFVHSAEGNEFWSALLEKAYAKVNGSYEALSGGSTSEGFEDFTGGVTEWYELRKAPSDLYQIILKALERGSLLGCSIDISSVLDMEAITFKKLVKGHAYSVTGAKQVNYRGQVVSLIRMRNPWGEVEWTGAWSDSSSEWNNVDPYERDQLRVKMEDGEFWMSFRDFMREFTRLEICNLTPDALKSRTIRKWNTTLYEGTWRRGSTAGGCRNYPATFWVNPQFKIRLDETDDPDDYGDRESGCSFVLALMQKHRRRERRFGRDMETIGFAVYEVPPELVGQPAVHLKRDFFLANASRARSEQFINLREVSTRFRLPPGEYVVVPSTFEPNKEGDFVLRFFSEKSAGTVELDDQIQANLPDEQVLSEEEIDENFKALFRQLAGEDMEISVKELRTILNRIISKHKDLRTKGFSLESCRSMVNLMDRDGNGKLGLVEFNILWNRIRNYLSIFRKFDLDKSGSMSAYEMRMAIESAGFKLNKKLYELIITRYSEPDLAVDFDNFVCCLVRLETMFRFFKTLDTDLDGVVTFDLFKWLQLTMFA
UniProt O14981: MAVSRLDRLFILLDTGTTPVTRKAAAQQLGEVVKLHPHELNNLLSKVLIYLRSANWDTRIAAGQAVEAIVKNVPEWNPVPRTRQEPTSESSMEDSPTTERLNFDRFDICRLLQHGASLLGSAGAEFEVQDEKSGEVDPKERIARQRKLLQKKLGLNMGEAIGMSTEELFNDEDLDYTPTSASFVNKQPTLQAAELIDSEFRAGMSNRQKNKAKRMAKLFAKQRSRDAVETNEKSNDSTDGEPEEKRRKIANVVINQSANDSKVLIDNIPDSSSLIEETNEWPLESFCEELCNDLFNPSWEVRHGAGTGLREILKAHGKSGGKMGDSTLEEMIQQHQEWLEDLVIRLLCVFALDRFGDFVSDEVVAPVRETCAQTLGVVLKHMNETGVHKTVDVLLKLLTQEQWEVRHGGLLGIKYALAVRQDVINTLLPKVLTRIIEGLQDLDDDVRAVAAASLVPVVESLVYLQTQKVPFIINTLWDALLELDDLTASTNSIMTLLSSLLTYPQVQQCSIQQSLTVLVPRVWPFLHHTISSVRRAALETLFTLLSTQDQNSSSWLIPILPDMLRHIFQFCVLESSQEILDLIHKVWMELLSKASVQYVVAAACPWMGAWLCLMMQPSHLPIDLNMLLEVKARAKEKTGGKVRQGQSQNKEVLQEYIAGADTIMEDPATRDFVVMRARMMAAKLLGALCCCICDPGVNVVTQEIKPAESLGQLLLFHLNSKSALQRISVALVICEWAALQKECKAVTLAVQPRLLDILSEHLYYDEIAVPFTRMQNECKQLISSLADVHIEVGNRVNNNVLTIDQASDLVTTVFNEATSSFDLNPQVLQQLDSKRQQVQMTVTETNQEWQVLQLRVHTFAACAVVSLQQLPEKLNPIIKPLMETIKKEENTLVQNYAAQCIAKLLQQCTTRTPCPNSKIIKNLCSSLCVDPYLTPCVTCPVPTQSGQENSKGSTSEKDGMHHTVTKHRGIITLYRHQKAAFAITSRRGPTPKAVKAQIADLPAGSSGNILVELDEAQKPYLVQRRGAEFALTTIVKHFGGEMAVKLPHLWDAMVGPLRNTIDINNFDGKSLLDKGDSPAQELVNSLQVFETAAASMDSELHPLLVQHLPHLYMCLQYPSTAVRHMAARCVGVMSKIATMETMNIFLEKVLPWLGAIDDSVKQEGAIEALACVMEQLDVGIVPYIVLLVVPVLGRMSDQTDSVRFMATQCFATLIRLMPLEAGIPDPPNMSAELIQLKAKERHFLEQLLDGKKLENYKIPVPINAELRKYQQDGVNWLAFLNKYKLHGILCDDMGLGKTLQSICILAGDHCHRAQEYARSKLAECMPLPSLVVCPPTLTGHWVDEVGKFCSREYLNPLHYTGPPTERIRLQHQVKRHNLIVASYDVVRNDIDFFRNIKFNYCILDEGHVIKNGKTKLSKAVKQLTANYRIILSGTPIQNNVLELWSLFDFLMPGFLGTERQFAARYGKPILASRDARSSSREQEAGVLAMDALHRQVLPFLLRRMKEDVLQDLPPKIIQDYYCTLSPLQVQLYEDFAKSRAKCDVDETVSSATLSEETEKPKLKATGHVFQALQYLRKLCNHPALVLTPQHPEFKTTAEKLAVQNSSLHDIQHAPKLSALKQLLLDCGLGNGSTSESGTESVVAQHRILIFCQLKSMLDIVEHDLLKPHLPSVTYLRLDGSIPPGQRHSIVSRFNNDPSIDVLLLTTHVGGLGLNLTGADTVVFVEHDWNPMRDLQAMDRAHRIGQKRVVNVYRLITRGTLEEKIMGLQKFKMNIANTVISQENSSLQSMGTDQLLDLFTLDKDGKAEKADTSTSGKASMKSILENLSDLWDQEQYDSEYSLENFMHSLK
UniProt Q10589, whole entry, looked up: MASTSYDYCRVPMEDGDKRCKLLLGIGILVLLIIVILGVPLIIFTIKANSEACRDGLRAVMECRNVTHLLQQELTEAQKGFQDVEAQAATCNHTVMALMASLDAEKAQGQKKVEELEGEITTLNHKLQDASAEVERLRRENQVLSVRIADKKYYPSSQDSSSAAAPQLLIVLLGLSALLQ
UniProt Q8WVQ1: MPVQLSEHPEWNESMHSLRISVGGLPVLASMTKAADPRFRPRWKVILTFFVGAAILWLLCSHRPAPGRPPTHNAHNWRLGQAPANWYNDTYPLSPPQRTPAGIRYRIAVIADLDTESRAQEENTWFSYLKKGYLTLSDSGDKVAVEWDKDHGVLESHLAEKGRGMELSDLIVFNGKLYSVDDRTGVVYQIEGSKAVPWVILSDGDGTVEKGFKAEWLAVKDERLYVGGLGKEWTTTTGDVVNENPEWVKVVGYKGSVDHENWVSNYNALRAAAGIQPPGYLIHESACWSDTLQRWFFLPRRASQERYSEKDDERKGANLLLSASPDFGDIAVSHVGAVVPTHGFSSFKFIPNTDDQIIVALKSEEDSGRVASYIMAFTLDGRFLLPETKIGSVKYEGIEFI

Key:
Experiment in all cases: log2 fold change, soluble protein after heating vs DMSO (PISA); higher = thermal stabilisation; K562 cells, 10 uM, 30 min; active = over 0.2 and 3.5 SD of the protein, either way, in both replicates (recomputed)
[1] = compound: Cc1ccc(NC(=O)c2ccc(CN3CC[C@H](N(C)C)C3)c(C(F)(F)F)c2)cc1Nc1nccc(-c2cncnc2)n1 [bafetinib]
In short: (§1)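 K562 cells at 2×10^6 cells/mL were given 10 μM compound for 30 min. Aliquots then went through 3 min of heating across 48°C-58°C, were pooled, and were extracted in PBS with 0.5% NP-40 at 4°C, and the supernatant after 21,000xg for 90 min was quantified by TMTpro 16plex LC-MS/MS with channel sums equalised. Thermal stability relative to control samples, from duplicates, is given as log2 fold change.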

[2] = compound: Cc1cccc(CC(=O)N2CCc3c2ccc(-c2cn(C)c4ncnc(N)c24)c3F)n1
In short: as §1

[3] = compound: Cc1cn(-c2cc(NC(=O)c3ccc(C)c(Nc4nccc(-c5cccnc5)n4)c3)cc(C(F)(F)F)c2)cn1 [nilotinib]
In short: as §1

[4] = compound: Cc1nc(Nc2n[nH]c3c2CN(C(=O)N[C@H](CN(C)C)c2ccccc2)C3(C)C)c2sccc2n1
In short: as §1

[5] = compound: Cc1nc(Nc2ncc(C(=O)Nc3c(C)cccc3Cl)s2)cc(N2CCN(CCO)CC2)n1 [dasatinib]
In short: as §1

[6] = compound: Cc1ncc(-c2ccnc(Nc3ccc(S(C)(=O)=O)cc3)n2)n1C(C)C
In short: as §1

[7] = compound: Cn1cc(-c2ccc3c(c2)CCN3C(=O)Cc2cccc(C(F)(F)F)c2)c2c(N)ncnc21
In short: as §1

[8] = compound: Cn1cc(-c2ccc3nnc(C(F)(F)c4ccc5ncccc5c4)n3n2)cn1
In short: as §1

[9] = compound: Cn1cncc1[C@@](N)(c1ccc(Cl)cc1)c1ccc2c(c1)c(-c1cccc(Cl)c1)cc(=O)n2C [tipifarnib]
In short: as §1

[10] = compound: FC(F)(F)c1ccc(/C=C/c2nc(COc3ccc(CCCCn4ccnn4)cc3)co2)cc1 [mubritinib]
In short: as §1

[11] = compound: NC(=O)Nc1cc(-c2cccc(F)c2)sc1C(=O)N[C@H]1CCCNC1
In short: as §1

[12] = compound: NC(=O)c1cnc(N[C@@H]2CCCC[C@@H]2N)nc1Nc1cccc(-n2nccn2)c1
In short: as §1

[13] = compound: NC1(c2ccc(-c3nc4ccn5c(=O)[nH]nc5c4cc3-c3ccccc3)cc2)CCC1
In short: as §1

[14] = compound: NCC(=O)Nc1ccc(-n2nc(C(F)(F)F)cc2-c2ccc3c(ccc4ccccc43)c2)cc1
In short: as §1

[15] = compound: Nc1ccccc1NC(=O)c1ccc(CNC(=O)OCc2cccnc2)cc1 [entinostat]
In short: as §1

[16] = compound: O=C(CCCCCCC(=O)Nc1ccccc1)NO [vorinostat]
In short: as §1

[17] = compound: O=C(CCCCCCNC(=O)c1cnc(N(c2ccccc2)c2ccccc2Cl)nc1)NO [citarinostat]
In short: as §1

[18] = compound: O=C(O)c1ccc2c(c1)nc(Nc1cccc(Cl)c1)c1ccncc12 [silmitasertib]
In short: as §1

[19] = compound: O=C1NC(=O)C(c2cnc3ccccn23)=C1c1cn2c3c(cc(F)cc13)CN(C(=O)N1CCCCC1)CC2
In short: as §1

[20] = compound: c1cc(OCCN2CCCCC2)cc(-c2n[nH]c3ccc(-c4nnc[nH]4)cc23)c1
In short: as §1

Measured: log2 fold change

C11orf98 (UniProt E9PRG8)
inactive: [1] 0.18 | [2] -0.014 | [3] 0.021 | [4] 0.087 | [5] 0.172 | [6] -0.017 | [7] -0.244 | [8] -0.1 | [9] 0.124 | [10] -0.114 | [11] 0.004 | [12] 0.043 | [13] 0.257 | [14] 0.102 | [15] -0.082 | [16] -0.032 | [17] -0.069 | [18] 0.151 | [19] 0.222 | [20] -0.066

C8orf82 (UniProt Q6P1X6)
inactive: [1] -0.079 | [2] 0.002 | [3] 0.008 | [4] 0.01 | [5] 0.022 | [6] 0.013 | [7] 0.057 | [8] 0.053 | [9] 0.05 | [10] 0.033 | [11] 0.004 | [12] 0.128 | [13] -0.031 | [14] -0.005 | [15] 0.022 | [16] -0.031 | [17] 0.034 | [18] 0.028 | [19] -0.037 | [20] 0.017

C8orf33 isoform 2 (UniProt Q9H7E9)
inactive: [1] 0.249 | [2] 0.02 | [3] 0.041 | [4] -0.058 | [5] 0.056 | [6] -0.052 | [7] -0.516 | [8] -0.232 | [9] 0.072 | [10] -0.336 | [11] 0.119 | [12] 0.218 | [13] 0.436 | [14] 0.298 | [15] -0.007 | [16] -0.025 | [17] -0.1 | [18] 0.423 | [19] 0.26 | [20] -0.144

CALCOCO2 isoform 4 (UniProt Q13137)
inactive: [2] -0.061 | [3] -0.039 | [4] 0.038 | [5] 0.01 | [6] 0.1 | [7] -0.013 | [8] -0.035 | [9] -0.015 | [10] -0.025 | [11] -0.017 | [12] -0.075 | [14] -0.185 | [15] -0.006 | [16] -0.006 | [17] 0.035 | [18] 0.047 | [19] 0.071 | [20] -0.034
active: [1] -0.647 | [13] -0.324

2 consecutive entries already listed:
C8orf82 (UniProt Q6P1X6)
inactive: [1] -0.079 | [2] 0.002 | [3] 0.008 | [4] 0.01 | [5] 0.022 | [6] 0.013 | [7] 0.057 | [8] 0.053 | [9] 0.05 | [10] 0.033 | [11] 0.004 | [12] 0.128 | [13] -0.031 | [14] -0.005 | [15] 0.022 | [16] -0.031 | [17] 0.034 | [18] 0.028 | [19] -0.037 | [20] 0.017

C8orf33 isoform 2 (UniProt Q9H7E9)
inactive: [1] 0.249 | [2] 0.02 | [3] 0.041 | [4] -0.058 | [5] 0.056 | [6] -0.052 | [7] -0.516 | [8] -0.232 | [9] 0.072 | [10] -0.336 | [11] 0.119 | [12] 0.218 | [13] 0.436 | [14] 0.298 | [15] -0.007 | [16] -0.025 | [17] -0.1 | [18] 0.423 | [19] 0.26 | [20] -0.144

Additional results.

C11orf54 (UniProt Q9H0W9)
inactive: [1] -0.045 | [2] -0.025 | [3] 0.032 | [4] 0.022 | [5] 0.024 | [6] -0.019 | [7] -0.008 | [8] -0.003 | [9] -0.026 | [10] 0.045 | [11] -0.06 | [12] -0.011 | [13] -0.008 | [14] 0.028 | [15] -0.032 | [16] 0.074 | [17] 0.095 | [18] -0.002 | [19] -0.045 | [20] 0

C1orf131 isoform 5 (UniProt Q8NDD1)
inactive: [1] 0.147 | [2] -0.055 | [3] -0.001 | [4] 0.1 | [5] 0.123 | [6] -0.097 | [7] -0.176 | [8] -0.115 | [9] 0.203 | [10] -0.118 | [11] 0.044 | [12] 0.053 | [13] 0.235 | [14] 0.103 | [15] -0.081 | [16] 0 | [17] -0.045 | [18] 0.17 | [19] 0.151 | [20] -0.178

CAPZA2 (UniProt P47755)
inactive: [1] -0.03 | [2] 0.027 | [3] 0.025 | [4] -0.014 | [5] -0.012 | [6] -0.002 | [7] 0.016 | [8] -0.004 | [9] -0.063 | [10] 0.033 | [11] 0.068 | [12] -0.011 | [13] -0.062 | [14] -0.007 | [15] 0.035 | [16] 0.004 | [17] 0.032 | [18] 0.01 | [19] -0.056 | [20] -0.018

CAMKK2 (UniProt Q96RR4)
inactive: [1] 0.04 | [2] -0.144 | [3] -0.008 | [4] 0.226 | [5] 0 | [6] -0.14 | [7] -0.083 | [8] 0.102 | [9] -0.076 | [10] -0.024 | [11] -0.088 | [12] -0.389 | [13] -0.113 | [14] -0.047 | [15] 0.015 | [16] 0.323 | [17] -0.144 | [18] 0.128 | [19] -0.038 | [20] 0.036

BSG (UniProt P35613)
inactive: [1] 0.032 | [2] -0.021 | [3] 0.063 | [4] -0.029 | [5] 0.022 | [6] 0.012 | [7] 0.04 | [8] -0.016 | [9] -0.008 | [10] 0.054 | [11] -0.074 | [12] 0.017 | [13] 0.086 | [14] 0.022 | [15] -0.061 | [16] -0.01 | [17] -0.031 | [18] -0.032 | [19] -0.03 | [20] -0.058

BUD23 isoform 3 (UniProt O43709)
inactive: [1] 0.111 | [2] 0.014 | [3] -0.027 | [4] 0.07 | [5] 0.013 | [6] 0.055 | [7] -0.008 | [8] -0.03 | [9] 0.017 | [10] 0.009 | [11] -0.023 | [12] -0.12 | [13] 0.065 | [14] -0.185 | [15] -0.049 | [16] 0.047 | [17] -0.083 | [18] 0.04 | [19] 0.124 | [20] -0.123

C1orf50 (UniProt Q9BV19)
inactive: [1] -0.086 | [2] -0.067 | [3] 0.094 | [4] -0.058 | [5] -0.068 | [6] -0.067 | [7] 0.063 | [8] 0.11 | [9] 0.01 | [10] -0.01 | [11] 0.054 | [12] 0.058 | [13] -0.015 | [14] -0.098 | [15] -0.006 | [16] 0 | [17] -0.033 | [18] -0.008 | [19] -0.018 | [20] -0.028

C6orf47 (UniProt O95873)
inactive: [1] -0.078 | [2] -0.093 | [3] -0.029 | [4] -0.021 | [5] -0.036 | [6] 0.002 | [7] 0.036 | [8] 0.037 | [9] 0.083 | [10] 0.029 | [11] -0.028 | [12] -0.031 | [13] -0.041 | [14] 0.003 | [15] -0.008 | [16] -0.092 | [17] 0.045 | [18] 0.022 | [19] -0.055 | [20] -0.012

CAPN1 (UniProt P07384)
inactive: [1] -0.006 | [2] 0.006 | [3] 0.038 | [4] 0.011 | [5] 0.072 | [6] -0.014 | [7] 0.024 | [8] 0.01 | [9] 0.028 | [10] 0.049 | [11] 0.058 | [12] 0.056 | [13] 0.014 | [14] 0.098 | [15] -0.029 | [16] -0.012 | [17] 0.006 | [18] -0.016 | [19] -0.03 | [20] 0.017

BTAF1 (UniProt O14981)
inactive: [1] -0.158 | [2] 0.025 | [3] -0.004 | [4] -0.059 | [5] -0.131 | [6] 0.035 | [7] 0.04 | [8] -0.003 | [9] -0.034 | [10] -0.022 | [11] -0.024 | [12] -0.012 | [13] -0.152 | [14] -0.104 | [15] 0.012 | [16] 0.037 | [17] 0.038 | [18] 0.036 | [19] -0.062 | [20] 0.079

BST2 (UniProt Q10589)
inactive: [1] 0.061 | [2] -0.009 | [3] 0.048 | [4] -0.059 | [5] -0.016 | [6] -0.096 | [7] -0.052 | [8] 0.029 | [9] 0.036 | [10] -0.015 | [11] 0.031 | [12] 0.02 | [13] 0.003 | [14] 0.132 | [15] 0.03 | [16] -0.026 | [17] -0.058 | [18] 0.009 | [19] 0.112 | [20] -0.092

CANT1 (UniProt Q8WVQ1)
inactive: [1] -0.068 | [2] 0.016 | [3] -0.023 | [4] 0.007 | [5] -0.005 | [6] 0.07 | [7] 0.022 | [8] 0.007 | [9] -0.008 | [10] -0.034 | [11] -0.034 | [12] -0.023 | [13] -0.048 | [14] -0.004 | [15] 0.033 | [16] 0.008 | [17] 0 | [18] 0.031 | [19] -0.043 | [20] 0.059
